From ChEMBL document CHEMBL3988442, “University of Dundee, Small-Polar-MMV Screening Library” (2021).

Each number is a percent effect as filed. The controls that fix the scale are not given in the record; negative values are as filed. Compounds were drawn at random from those tested, without regard to their results.

Mtb growth Cornell: 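Whole-cell assay for inhibitors of Mycobacterium tuberculosis growth, labelled Cornell in the record; the read-out is not stated. The concentration is filed as 10 mM, unlikely as a test dose, so the dose is not known. The record gives no direction; compounds strong in two other growth screens of this library score well above the rest, so higher reads as stronger inhibition. Of about 53,000 compounds tested this way, about 900 (1.7%) reached 50% or more in at least one test.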
Mtb heat-shock: 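Assay on Mycobacterium tuberculosis, filed only as a heat shock assay from Cornell; the read-out is not stated. The concentration is filed as 10 mM, unlikely as a test dose, so the dose is not known. Higher reads as stronger inhibition (inferred: compounds with an IC50 in retests scored well above the rest). About 69,000 compounds were tested under these conditions; 1.4% (about 930) showed 50% or more at least once.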

structure: COCc1cc(N2CCOC(c3ccc(F)cc3)C2)ncn1 (stereo not shown)
Mtb growth Cornell: 14.05
Mtb heat-shock: -13.28

structure: O=C(NCc1nncn1C1CCCCC1)C1COc2ccccc2C1 (stereo not shown)
Mtb growth Cornell: -2.527
Mtb heat-shock: -22.74

structure: COC1CN(C(=O)CC(C)C)CCC(=O)N(C)c2ccccc21 (stereo not shown)
Mtb growth Cornell: -18.43
Mtb heat-shock: 33.11

structure: COc1cccc(COCC(=O)N2CCCN(CC(N)=O)CC2)c1
Mtb heat-shock: -1.075

structure: COc1ccc(C2=CCN(C(=O)C3CCCN(C(N)=O)C3)CC2)cc1 (stereo not shown)
Mtb growth Cornell: 24.46
Mtb heat-shock: 13.7

structure: CC(C)CCC(=O)Nc1ncn(CC(=O)N2CCCCCC2)n1
Mtb growth Cornell: -4.638
Mtb heat-shock: 14.44

structure: N#Cc1ccc(C(=O)N2CC(c3nc(-c4ncccn4)no3)C2)cc1
Mtb growth Cornell: -23.18
Mtb heat-shock: 7.308

structure: CCn1c(N)nc2cc(C(=O)N3Cc4ccccc4C3)cnc21
Mtb growth Cornell: 1.026
Mtb heat-shock: 12.85

structure: CN(Cc1ccsc1)C(=O)Nc1ccc(N2CCCC2)nc1
Mtb heat-shock: -4.399

structure: CN1C(=O)CC(C(=O)O)C12CCN(Cc1ccc(Cl)c(F)c1)CC2 (stereo not shown)
Mtb growth Cornell: -9.081
Mtb heat-shock: -28.86

structure: O=C(O)C(F)(F)F.O=C(O)C(F)(F)F.[H][C@@]12C[C@@H](Oc3ccccc3)CN1CCN(Cc1nccn1C)C2
Mtb growth Cornell: -1.02
Mtb heat-shock: -18

structure: O=C(NCC(=O)N1CC2(CCCC2)c2c(F)cccc21)C1CC1
Mtb growth Cornell: 0.009133
Mtb heat-shock: 55.94

structure: CC(Sc1nncn1C)C(=O)NCCCOc1ccc(F)cc1 (stereo not shown)
Mtb growth Cornell: -8.285
Mtb heat-shock: 9.016

structure: CN(CCCc1cnn(C)c1)C(=O)Nc1cccc2[nH]nnc12
Mtb heat-shock: -15.54

structure: Fc1ccc2c(c1)C(NCc1nnc3n1CCCCC3)CCCO2 (stereo not shown)
Mtb growth Cornell: -20.85
Mtb heat-shock: -6.776

structure: CC(C)(C)NC(=O)[C@@H]1Cc2ccccc2CN1Cc1cccs1
Mtb heat-shock: -37.9

structure: Cc1cc(N2CCCC2)nc(N(C)CCO)c1C#N
Mtb growth Cornell: 24.19
Mtb heat-shock: -23.51

structure: NC(=O)CCNCc1c(Cl)cccc1N1CCCC1
Mtb growth Cornell: -9.412
Mtb heat-shock: -14.39

structure: O=C(O)C(F)(F)F.[H][C@@]12CCN(c3cccnc3)C[C@]1([H])CN(C(=O)c1cccn1C)C2
Mtb growth Cornell: -5.532
Mtb heat-shock: -11.78

structure: CN1CCN(Cc2cccnc2)C2(CCN(c3ncccn3)C2)C1=O.O=C(O)C(F)(F)F.O=C(O)C(F)(F)F (stereo not shown)
Mtb growth Cornell: 25.63
Mtb heat-shock: -23.61

structure: CC[C@@H]1N(Cc2ccccn2)CCC[C@]12CCC(=O)N2CCOC
Mtb heat-shock: -5.777

structure: O=C(c1cc2c([nH]c1=O)CCC2)N1CCCCCC1c1ccncc1 (stereo not shown)
Mtb heat-shock: -14.57

structure: CCOc1cc(C)nc(N2CCN(C(=O)CC)CC2)n1
Mtb growth Cornell: -11.02
Mtb heat-shock: 6.224

structure: CCN1CCN(C2CCN(CC(=O)NCC(F)(F)F)CC2)C1=O
Mtb heat-shock: -7.005

structure: Cc1ccc(-c2ccccc2CC2CNCCNC2=O)c(C)c1.Cl (stereo not shown)
Mtb growth Cornell: -9.18
Mtb heat-shock: -20.91

structure: O=C(C1CCC1)N1CCC2(COCc3cnc(N4CCOCC4)nc32)C1 (stereo not shown)
Mtb growth Cornell: -5.331
Mtb heat-shock: 6.955

structure: Cc1ccc(-c2n[nH]cc2CNCC2CCS(=O)(=O)C2)o1 (stereo not shown)
Mtb growth Cornell: -35.78
Mtb heat-shock: -1.793

structure: CN(Cc1nccn1CC(F)(F)F)C(=O)c1ccc(F)cc1F
Mtb growth Cornell: -2.92
Mtb heat-shock: 15.47

structure: CN(CCCc1cnn(C)c1)C(=O)C1COc2ccccc2C1 (stereo not shown)
Mtb growth Cornell: 4.434
Mtb heat-shock: 6.725

structure: [H][C@@]12C[C@@H](Oc3cccnc3)CN1CCN(C(=O)c1ccncc1)C2
Mtb heat-shock: -42.49

structure: COCCc1noc(CN(C)C2CCCN(c3ccc(C)nn3)C2)n1 (stereo not shown)
Mtb growth Cornell: 17.5
Mtb heat-shock: 10.98

structure: CC(Cc1ccccc1F)NC(=O)CCc1nc(-c2nnc[nH]2)no1 (stereo not shown)
Mtb heat-shock: -0.8276

structure: COc1ccc(C(=O)NS(=O)(=O)c2cccc(C#N)c2)cc1
Mtb growth Cornell: 8.128
Mtb heat-shock: -19.14

structure: O=C(CCc1ccsc1)N1CCC(C(=O)O)(c2ccccc2)CC1
Mtb growth Cornell: 24.8
Mtb heat-shock: 11.78

structure: [H][C@@]12CCN(Cc3ccncc3)C[C@@]1([H])O[C@@H](c1nc(C3CC3)cs1)C2
Mtb growth Cornell: 22.46
Mtb heat-shock: -3.139

structure: Cc1ccc(C(=O)N2CC(C(N)=O)O[C@H](C)C2)c(C)c1 (stereo partly shown)
Mtb growth Cornell: -1.856
Mtb heat-shock: 13.36

structure: [H][C@@]12OCCN(C(=O)COc3ccc(C)cc3)[C@@]1([H])CC[C@H]2OC
Mtb growth Cornell: -70.13
Mtb heat-shock: 25.37